Measurements as given in publication PMC7857730.

Biological target: T1, Iml1-myc (S. pombe) (UniProt O74788)
T1 sequence: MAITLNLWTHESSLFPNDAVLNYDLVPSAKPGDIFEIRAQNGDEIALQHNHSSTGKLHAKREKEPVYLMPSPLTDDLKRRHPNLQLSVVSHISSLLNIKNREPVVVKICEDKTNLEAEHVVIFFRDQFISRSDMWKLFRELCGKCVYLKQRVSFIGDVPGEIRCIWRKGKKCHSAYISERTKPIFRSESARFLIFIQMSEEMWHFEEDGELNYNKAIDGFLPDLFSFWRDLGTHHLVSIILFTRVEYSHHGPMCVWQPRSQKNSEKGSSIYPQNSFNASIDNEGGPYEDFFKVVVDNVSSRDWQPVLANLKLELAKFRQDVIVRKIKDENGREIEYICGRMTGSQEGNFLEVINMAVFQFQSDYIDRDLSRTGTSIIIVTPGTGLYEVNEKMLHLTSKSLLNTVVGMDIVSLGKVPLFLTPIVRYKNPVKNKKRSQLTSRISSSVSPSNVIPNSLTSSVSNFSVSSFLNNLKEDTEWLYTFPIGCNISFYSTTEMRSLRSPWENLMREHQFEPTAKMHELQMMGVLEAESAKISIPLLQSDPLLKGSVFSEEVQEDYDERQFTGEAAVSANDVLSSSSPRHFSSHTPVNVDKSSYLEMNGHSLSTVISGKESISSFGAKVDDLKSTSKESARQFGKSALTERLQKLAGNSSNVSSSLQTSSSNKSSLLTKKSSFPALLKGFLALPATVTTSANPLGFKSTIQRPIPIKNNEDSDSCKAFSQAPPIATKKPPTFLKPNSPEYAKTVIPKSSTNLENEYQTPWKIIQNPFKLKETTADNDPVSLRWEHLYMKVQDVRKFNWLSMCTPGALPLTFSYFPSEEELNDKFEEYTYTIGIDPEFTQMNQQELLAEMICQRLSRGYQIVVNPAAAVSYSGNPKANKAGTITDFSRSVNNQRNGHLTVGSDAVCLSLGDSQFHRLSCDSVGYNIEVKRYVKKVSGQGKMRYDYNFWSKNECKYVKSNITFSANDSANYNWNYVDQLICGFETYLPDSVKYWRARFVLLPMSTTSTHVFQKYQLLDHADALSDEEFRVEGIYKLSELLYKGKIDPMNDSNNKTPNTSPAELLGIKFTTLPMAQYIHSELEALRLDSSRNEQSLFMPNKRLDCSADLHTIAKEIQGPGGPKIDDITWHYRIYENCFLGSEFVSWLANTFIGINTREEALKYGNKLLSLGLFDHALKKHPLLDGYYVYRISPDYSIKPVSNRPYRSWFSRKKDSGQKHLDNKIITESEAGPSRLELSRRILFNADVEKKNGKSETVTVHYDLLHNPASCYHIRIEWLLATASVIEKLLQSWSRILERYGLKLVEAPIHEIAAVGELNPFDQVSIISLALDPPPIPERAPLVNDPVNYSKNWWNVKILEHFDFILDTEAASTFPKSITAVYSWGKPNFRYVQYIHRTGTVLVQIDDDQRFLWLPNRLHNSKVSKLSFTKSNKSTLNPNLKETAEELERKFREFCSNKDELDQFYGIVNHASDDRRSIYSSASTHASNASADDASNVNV
Assay: co-IP

| binding | Substance |
| --- | --- |
| binds | FLAG-Npr2 (S. pombe) |
| binds | FLAG-Npr3 (S. pombe) |

Results are given in words; binding and its absence hold for the method and conditions named. In cells and extracts the contact can be indirect. A result given as binding can be weak or reduced; the word gives no strength. Tags and fused reporters may be left off the sequences shown.
